Laboratory results reported in the supplement of paper PMC10849652.
The other results are listed elsewhere or left out.

By UniProt entry, the sequences of proteins in these tests, tags left out. Where a name states a change or a piece, a line headed by the entry shows the natural chain unless it says otherwise.
UniProt O95671: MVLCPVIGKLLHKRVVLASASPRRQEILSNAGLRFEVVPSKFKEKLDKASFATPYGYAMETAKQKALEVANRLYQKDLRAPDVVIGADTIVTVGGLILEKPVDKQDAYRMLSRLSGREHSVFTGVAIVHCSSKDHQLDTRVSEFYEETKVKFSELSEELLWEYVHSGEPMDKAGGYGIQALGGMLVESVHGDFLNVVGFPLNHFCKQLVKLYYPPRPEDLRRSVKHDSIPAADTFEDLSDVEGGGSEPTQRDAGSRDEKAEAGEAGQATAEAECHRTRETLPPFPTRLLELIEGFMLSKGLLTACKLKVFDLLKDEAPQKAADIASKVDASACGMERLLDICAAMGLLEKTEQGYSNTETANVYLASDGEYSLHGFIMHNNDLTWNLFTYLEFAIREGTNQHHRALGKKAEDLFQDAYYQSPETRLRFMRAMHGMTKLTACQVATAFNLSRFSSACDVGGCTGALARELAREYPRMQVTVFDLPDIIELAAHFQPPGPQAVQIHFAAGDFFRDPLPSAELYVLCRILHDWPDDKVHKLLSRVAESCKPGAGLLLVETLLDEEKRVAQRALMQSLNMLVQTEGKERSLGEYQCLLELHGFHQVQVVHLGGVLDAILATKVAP
UniProt Q9Y689: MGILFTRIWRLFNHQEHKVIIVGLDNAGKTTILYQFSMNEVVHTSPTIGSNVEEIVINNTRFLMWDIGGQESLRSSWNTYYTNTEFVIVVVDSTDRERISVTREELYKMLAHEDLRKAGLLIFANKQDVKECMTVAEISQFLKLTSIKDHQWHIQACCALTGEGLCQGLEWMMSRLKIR
UniProt Q5T9A4: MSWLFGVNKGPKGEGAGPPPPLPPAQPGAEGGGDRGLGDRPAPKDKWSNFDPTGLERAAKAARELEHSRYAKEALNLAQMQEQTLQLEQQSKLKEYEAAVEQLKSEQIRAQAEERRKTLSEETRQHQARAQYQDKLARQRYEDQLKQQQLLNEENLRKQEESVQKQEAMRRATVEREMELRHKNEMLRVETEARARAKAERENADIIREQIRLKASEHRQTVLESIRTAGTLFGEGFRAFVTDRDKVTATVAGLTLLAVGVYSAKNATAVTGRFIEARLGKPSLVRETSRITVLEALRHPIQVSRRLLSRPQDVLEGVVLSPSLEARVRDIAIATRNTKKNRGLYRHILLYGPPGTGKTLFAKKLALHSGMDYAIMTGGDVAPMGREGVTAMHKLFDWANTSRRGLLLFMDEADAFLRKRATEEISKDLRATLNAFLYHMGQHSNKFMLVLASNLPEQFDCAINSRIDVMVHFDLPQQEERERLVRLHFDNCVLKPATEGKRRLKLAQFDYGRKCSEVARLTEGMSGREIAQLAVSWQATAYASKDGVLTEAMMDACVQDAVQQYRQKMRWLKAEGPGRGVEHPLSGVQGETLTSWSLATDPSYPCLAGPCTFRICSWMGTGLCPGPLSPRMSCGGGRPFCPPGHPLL
UniProt P40616: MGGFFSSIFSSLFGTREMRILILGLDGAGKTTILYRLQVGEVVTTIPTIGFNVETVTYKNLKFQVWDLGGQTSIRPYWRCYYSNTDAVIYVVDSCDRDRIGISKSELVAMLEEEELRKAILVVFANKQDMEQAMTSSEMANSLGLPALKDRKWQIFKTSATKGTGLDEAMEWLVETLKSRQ
UniProt O94817, whole entry, looked up: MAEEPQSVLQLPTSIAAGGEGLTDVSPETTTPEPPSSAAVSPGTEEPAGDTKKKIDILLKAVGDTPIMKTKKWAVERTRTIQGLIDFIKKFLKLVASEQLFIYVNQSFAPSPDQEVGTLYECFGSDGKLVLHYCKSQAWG
UniProt Q8N3C0, whole entry, looked up: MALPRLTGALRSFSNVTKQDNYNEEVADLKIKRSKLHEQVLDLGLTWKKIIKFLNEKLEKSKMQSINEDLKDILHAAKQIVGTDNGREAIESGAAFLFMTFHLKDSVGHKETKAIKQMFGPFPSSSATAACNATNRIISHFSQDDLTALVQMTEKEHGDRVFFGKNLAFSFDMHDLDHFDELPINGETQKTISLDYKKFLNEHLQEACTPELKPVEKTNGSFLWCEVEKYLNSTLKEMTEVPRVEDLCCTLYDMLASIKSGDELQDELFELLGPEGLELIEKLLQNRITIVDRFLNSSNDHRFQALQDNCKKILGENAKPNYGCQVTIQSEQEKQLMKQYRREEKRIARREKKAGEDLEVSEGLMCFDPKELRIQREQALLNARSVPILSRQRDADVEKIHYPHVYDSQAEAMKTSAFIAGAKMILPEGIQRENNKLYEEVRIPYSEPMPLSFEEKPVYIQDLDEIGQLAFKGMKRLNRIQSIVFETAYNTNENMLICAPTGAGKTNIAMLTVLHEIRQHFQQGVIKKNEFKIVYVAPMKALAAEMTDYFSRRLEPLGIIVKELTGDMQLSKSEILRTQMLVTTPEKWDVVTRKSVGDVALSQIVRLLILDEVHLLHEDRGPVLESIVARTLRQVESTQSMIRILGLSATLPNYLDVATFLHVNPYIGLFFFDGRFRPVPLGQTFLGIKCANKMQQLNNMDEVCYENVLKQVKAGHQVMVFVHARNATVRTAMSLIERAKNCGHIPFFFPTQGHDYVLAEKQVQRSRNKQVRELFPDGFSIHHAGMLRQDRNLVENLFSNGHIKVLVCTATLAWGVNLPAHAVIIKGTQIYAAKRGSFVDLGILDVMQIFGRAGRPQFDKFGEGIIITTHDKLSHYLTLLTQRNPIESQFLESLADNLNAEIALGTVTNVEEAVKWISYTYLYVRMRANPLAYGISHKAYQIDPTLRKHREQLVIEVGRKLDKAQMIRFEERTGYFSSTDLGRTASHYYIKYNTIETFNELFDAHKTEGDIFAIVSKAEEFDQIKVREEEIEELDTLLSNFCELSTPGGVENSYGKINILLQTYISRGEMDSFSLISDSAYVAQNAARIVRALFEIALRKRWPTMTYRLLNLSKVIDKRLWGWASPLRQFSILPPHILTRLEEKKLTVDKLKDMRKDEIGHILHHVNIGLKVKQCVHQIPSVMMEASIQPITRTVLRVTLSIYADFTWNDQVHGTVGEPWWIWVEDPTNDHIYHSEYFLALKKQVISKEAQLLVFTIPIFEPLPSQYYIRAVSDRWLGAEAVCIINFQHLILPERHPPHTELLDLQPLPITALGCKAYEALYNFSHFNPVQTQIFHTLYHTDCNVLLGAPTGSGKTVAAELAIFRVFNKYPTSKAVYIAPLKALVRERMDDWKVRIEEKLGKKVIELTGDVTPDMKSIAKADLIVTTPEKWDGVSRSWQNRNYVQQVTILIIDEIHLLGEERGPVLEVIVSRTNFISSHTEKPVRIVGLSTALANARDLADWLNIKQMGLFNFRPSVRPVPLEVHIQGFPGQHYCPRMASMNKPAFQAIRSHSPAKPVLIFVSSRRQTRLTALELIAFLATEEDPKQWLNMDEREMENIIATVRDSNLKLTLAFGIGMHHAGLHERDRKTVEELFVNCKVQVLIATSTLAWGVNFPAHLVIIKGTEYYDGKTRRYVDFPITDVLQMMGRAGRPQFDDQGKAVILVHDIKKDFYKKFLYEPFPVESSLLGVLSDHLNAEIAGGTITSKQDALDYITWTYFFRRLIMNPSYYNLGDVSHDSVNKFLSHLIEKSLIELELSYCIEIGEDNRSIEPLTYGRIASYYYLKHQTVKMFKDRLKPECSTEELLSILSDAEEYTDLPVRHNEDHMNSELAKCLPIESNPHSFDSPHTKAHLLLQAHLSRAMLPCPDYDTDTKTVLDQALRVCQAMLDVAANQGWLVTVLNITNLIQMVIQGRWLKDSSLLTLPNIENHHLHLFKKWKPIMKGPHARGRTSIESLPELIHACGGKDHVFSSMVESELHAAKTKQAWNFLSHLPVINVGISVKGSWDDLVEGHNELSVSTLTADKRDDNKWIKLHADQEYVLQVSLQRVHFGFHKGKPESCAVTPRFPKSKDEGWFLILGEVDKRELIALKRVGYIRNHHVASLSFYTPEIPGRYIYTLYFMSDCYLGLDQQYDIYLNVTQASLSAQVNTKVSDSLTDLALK
UniProt Q9NT62, whole entry, looked up: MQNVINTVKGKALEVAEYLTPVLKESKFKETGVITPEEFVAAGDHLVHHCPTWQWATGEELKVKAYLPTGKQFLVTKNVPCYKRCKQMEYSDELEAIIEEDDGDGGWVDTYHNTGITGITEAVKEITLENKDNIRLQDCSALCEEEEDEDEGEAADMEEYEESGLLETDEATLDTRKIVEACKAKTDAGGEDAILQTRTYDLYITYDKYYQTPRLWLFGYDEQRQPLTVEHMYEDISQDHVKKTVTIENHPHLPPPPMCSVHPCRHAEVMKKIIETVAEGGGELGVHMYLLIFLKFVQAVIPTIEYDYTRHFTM
UniProt Q5TC12: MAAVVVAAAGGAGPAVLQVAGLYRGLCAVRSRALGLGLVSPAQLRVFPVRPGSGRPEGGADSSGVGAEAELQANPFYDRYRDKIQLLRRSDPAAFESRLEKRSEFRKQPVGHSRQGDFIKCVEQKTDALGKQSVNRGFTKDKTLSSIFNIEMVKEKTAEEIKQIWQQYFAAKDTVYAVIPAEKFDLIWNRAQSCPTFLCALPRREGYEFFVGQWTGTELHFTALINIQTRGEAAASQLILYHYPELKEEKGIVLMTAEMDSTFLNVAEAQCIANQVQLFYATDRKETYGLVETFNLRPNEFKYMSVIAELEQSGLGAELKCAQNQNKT
UniProt P31939: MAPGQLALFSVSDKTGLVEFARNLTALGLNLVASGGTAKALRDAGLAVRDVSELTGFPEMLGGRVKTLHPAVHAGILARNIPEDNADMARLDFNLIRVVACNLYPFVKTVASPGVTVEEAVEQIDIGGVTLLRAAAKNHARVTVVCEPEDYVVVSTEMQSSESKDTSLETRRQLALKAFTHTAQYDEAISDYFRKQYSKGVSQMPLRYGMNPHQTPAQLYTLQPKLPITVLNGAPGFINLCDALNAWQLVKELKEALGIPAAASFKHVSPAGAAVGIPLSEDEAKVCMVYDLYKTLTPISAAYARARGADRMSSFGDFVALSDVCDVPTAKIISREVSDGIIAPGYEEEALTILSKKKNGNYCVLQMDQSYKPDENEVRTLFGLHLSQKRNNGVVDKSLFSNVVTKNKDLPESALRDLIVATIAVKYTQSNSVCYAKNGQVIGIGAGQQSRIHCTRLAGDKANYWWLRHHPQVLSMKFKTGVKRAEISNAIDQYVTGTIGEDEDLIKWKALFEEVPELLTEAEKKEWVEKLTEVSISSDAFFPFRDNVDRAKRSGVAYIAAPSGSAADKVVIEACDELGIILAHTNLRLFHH
UniProt Q9NVJ2: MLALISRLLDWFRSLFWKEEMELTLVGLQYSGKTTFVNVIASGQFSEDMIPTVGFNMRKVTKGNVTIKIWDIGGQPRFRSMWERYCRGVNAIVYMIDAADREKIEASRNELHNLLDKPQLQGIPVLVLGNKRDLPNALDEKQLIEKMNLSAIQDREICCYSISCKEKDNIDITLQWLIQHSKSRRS
UniProt O43861: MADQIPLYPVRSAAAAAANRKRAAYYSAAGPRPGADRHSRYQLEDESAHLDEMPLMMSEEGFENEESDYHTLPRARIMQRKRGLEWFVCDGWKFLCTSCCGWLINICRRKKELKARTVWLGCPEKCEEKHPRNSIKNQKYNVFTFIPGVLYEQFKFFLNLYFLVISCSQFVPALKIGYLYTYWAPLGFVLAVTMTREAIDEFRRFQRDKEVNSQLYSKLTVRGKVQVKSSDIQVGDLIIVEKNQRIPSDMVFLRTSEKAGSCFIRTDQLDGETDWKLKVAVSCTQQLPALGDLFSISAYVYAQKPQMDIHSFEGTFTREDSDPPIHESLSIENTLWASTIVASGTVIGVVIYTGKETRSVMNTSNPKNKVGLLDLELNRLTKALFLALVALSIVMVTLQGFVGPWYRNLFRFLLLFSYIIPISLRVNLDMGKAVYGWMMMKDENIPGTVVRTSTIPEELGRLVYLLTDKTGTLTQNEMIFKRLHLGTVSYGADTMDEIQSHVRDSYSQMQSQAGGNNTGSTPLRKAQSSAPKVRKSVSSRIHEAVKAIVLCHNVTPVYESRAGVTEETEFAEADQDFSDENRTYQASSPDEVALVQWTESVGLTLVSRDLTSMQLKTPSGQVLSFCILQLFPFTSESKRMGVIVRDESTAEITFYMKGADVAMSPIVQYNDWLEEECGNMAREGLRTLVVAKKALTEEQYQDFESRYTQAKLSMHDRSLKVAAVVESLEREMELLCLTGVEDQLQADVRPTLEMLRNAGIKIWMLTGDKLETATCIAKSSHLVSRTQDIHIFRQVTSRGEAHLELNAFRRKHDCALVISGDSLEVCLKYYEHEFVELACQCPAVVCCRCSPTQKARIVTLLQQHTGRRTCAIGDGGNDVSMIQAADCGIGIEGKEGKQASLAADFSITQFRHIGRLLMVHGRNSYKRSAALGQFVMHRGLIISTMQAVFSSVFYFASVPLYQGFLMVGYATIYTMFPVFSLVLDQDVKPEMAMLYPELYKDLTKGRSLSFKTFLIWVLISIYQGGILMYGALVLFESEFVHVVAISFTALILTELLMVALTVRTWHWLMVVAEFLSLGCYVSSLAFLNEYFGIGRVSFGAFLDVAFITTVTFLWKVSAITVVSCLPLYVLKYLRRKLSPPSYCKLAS

How the values were obtained:
Experiment in all cases: log2 fold change, soluble protein after heating vs DMSO (PISA); higher = thermal stabilisation; K562 cells, 10 uM, 30 min; active = over 0.2 and 3.5 SD of the protein, either way, in both replicates (recomputed)
[1] = compound: COC1=CC=C(C=C1)CN2C=CC3=C2C=C(C=C3)C(=O)NO
In short: (§1)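 Values are thermal stability changes relative to control samples and are taken from duplicates. They are stated as log2 fold changes. Before quantification by TMTpro 16plex LC-MS/MS with equalised channel sums, K562 cells at 2×10^6 cells/mL were treated with 10 μM compound for 30 min, heated in aliquots for 3 min across 48°C-58°C, pooled, extracted in PBS with 0.5% NP-40 at 4°C, and centrifuged at 21,000xg for 90 min to give the soluble supernatant.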

filanesib = compound: CON(C)C(=O)N1N=C(c2cc(F)ccc2F)S[C@@]1(CCCN)c1ccccc1 [filanesib]
In short: as §1

zotarolimus = compound: CO[C@H]1C[C@@H]2CC[C@@H](C)[C@@](O)(O2)C(=O)C(=O)N2CCCC[C@H]2C(=O)O[C@H]([C@H](C)C[C@@H]2CC[C@H](n3cnnn3)[C@H](OC)C2)CC(=O)[C@H](C)/C=C(\C)[C@@H](O)[C@@H](OC)C(=O)[C@H](C)C[C@H](C)/C=C/C=C/C=C/1C [zotarolimus]
In short: as §1

idasanutlin = compound: COc1cc(C(=O)O)ccc1NC(=O)[C@@H]1N[C@@H](CC(C)(C)C)[C@](C#N)(c2ccc(Cl)cc2F)[C@H]1c1cccc(Cl)c1F [idasanutlin]
In short: as §1

alisertib = compound: COc1cc(Nc2ncc3c(n2)-c2ccc(Cl)cc2C(c2c(F)cccc2OC)=NC3)ccc1C(=O)O [alisertib]
In short: as §1

[2] = compound: COc1cc2nc(-c3cc(F)ccc3O)nc(N[C@@H]3CNC[C@H]3C(C)(C)O)c2cc1OC
In short: as §1

gefitinib = compound: COc1cc2ncnc(Nc3ccc(F)c(Cl)c3)c2cc1OCCCN1CCOCC1 [gefitinib]
In short: as §1

[3] = compound: COc1cccc2cc(-c3nc([C@H]4CC[C@H](C(=O)O)CC4)n4ncnc(N)c34)[nH]c12
In short: as §1

lapatinib = compound: CS(=O)(=O)CCNCc1ccc(-c2ccc3ncnc(Nc4ccc(OCc5cccc(F)c5)c(Cl)c4)c3c2)o1 [lapatinib]
In short: as §1

pictilisib = compound: CS(=O)(=O)N1CCN(Cc2cc3nc(-c4cccc5[nH]ncc45)nc(N4CCOCC4)c3s2)CC1 [pictilisib]
In short: as §1

Measured: log2 fold change

ARMC10 (UniProt Q8N2F6)
inactive: [1] 0.011 | filanesib 0.046 | zotarolimus 0.107 | idasanutlin -0.092 | alisertib -0.039 | [2] 0.117 | gefitinib 0.004 | [3] -0.133 | lapatinib -0.01 | pictilisib 0.07

ATP13A3 (UniProt Q9H7F0)
inactive: [1] -0.034 | filanesib 0.054 | zotarolimus -0.158 | idasanutlin -0.027 | alisertib -0.098 | [2] -0.078 | gefitinib -0.02 | [3] -0.038 | lapatinib 0.005 | pictilisib 0.104

ASMTL (UniProt O95671)
inactive: [1] -0.092 | filanesib -0.014 | zotarolimus 0.008 | idasanutlin -0.093 | alisertib -0.093 | [2] 0.033 | gefitinib 0.056 | [3] 0.113 | lapatinib 0.007 | pictilisib 0.048

ATG7 (UniProt O95352)
inactive: [1] -0.039 | filanesib -0.006 | zotarolimus 0.035 | idasanutlin -0.06 | alisertib 0.003 | [2] -0.02 | gefitinib -0.007 | [3] 0.017 | lapatinib 0.015 | pictilisib -0.079

ARL5A (UniProt Q9Y689)
inactive: [1] -0.013 | filanesib -0.022 | zotarolimus 0.039 | idasanutlin -0.085 | alisertib -0.086 | [2] 0.054 | gefitinib -0.038 | [3] 0.091 | lapatinib 0.087 | pictilisib 0.009

ATAD3B (UniProt Q5T9A4)
inactive: [1] -0.035 | filanesib 0.089 | zotarolimus -0.064 | idasanutlin 0.081 | alisertib 0.193 | [2] -0.138 | gefitinib -0.134 | [3] -0.136 | lapatinib -0.047 | pictilisib -0.161

ARL1 (UniProt P40616)
active: idasanutlin -0.254
inactive: [1] -0.007 | filanesib -0.155 | zotarolimus 0.03 | alisertib -0.124 | [2] -0.042 | gefitinib 0.047 | [3] 0.042 | lapatinib 0.117 | pictilisib -0.135

ARPC2 (UniProt O15144)
inactive: [1] -0.024 | filanesib 0.004 | zotarolimus 0.004 | idasanutlin -0.039 | alisertib -0.01 | [2] 0.048 | gefitinib 0.011 | [3] 0.094 | lapatinib -0.01 | pictilisib 0.023

ATG12 (UniProt O94817)
inactive: [1] 0.04 | filanesib -0.067 | zotarolimus -0.026 | idasanutlin -0.031 | alisertib -0.046 | [2] 0.04 | gefitinib -0.063 | [3] -0.045 | lapatinib 0 | pictilisib -0.122

ASCC3 (UniProt Q8N3C0)
inactive: [1] 0.13 | filanesib -0.004 | zotarolimus 0.053 | idasanutlin 0.109 | alisertib -0.08 | [2] 0.163 | gefitinib -0.001 | [3] -0.133 | lapatinib 0.062 | pictilisib 0.037

ATG3 (UniProt Q9NT62)
inactive: [1] -0.016 | filanesib -0.041 | zotarolimus -0.028 | idasanutlin -0.01 | alisertib -0.055 | [2] 0.035 | gefitinib 0.036 | [3] 0.006 | lapatinib -0.05 | pictilisib 0.048

ATPAF1 (UniProt Q5TC12)
inactive: [1] -0.005 | filanesib -0.115 | zotarolimus -0.023 | idasanutlin -0.013 | alisertib -0.013 | [2] -0.037 | gefitinib -0.019 | [3] 0.054 | lapatinib 0.057 | pictilisib 0.049

2 neighbouring records from above, quoted:
ARPC2 (UniProt O15144)
inactive: [1] -0.024 | filanesib 0.004 | zotarolimus 0.004 | idasanutlin -0.039 | alisertib -0.01 | [2] 0.048 | gefitinib 0.011 | [3] 0.094 | lapatinib -0.01 | pictilisib 0.023

ATG12 (UniProt O94817)
inactive: [1] 0.04 | filanesib -0.067 | zotarolimus -0.026 | idasanutlin -0.031 | alisertib -0.046 | [2] 0.04 | gefitinib -0.063 | [3] -0.045 | lapatinib 0 | pictilisib -0.122

Later entries:

ATIC (UniProt P31939)
inactive: [1] 0.047 | filanesib -0.039 | zotarolimus 0.046 | idasanutlin -0.03 | alisertib -0.092 | [2] -0.027 | gefitinib 0.114 | [3] -0.008 | lapatinib -0.001 | pictilisib -0.008

ARL8B (UniProt Q9NVJ2)
inactive: [1] -0.04 | filanesib -0.138 | zotarolimus -0.025 | idasanutlin -0.003 | alisertib 0.004 | [2] -0.049 | gefitinib -0.001 | [3] 0.026 | lapatinib -0.022 | pictilisib -0.023

ATP9B (UniProt O43861)
inactive: [1] -0.019 | filanesib 0.192 | zotarolimus -0.054 | idasanutlin 0.022 | alisertib -0.039 | [2] 0.023 | gefitinib 0.101 | [3] 0.178 | lapatinib 0.019 | pictilisib 0.012
